Results taken from patent US20260000781A1, “FC CONJUGATES INCLUDING AN INHIBITOR OF CD73 AND USES THEREOF” (Cidara Therapeutics, Inc., priority 2022, published 2026).
Results are given in words; binding and its absence hold for the method and conditions named. Some binding calls cover weakened binding; strength is not graded here. Tags and fused reporters may be left off the sequences shown.

Molecular target: T1, Enzymatically active His-tagged human CD73/NT5E protein (human) (UniProt P21589)
T1 sequence (looked up): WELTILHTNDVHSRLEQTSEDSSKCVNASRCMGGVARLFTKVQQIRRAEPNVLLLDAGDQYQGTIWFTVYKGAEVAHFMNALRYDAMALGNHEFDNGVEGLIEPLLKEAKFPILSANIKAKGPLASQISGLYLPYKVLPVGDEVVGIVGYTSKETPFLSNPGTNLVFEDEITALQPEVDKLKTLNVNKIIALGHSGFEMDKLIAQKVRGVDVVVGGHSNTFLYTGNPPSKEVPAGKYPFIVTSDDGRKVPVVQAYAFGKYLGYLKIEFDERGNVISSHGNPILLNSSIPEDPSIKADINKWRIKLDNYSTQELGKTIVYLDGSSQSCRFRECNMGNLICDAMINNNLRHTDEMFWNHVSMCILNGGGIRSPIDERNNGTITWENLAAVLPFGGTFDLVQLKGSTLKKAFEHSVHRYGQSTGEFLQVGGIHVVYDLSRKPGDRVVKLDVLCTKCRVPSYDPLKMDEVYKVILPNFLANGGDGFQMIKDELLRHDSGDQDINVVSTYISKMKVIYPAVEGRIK
Test: CD73-capture ELISA, plate coated with His-tagged human CD73, anti-human IgG Fc HRP detection

binding: binds
Substance: Conjugate 133a (from UniProt P0DOX5 203-448)
